# According to PubChem BioAssay AID1402 (National Center for Advancing Translational Sciences (NCATS), 2008):
# Sequences of proteins named here, by UniProt entry; tags and fusion partners are left off. A change or cut given only in a name is not applied to a line headed by its entry.
# UniProt P22888: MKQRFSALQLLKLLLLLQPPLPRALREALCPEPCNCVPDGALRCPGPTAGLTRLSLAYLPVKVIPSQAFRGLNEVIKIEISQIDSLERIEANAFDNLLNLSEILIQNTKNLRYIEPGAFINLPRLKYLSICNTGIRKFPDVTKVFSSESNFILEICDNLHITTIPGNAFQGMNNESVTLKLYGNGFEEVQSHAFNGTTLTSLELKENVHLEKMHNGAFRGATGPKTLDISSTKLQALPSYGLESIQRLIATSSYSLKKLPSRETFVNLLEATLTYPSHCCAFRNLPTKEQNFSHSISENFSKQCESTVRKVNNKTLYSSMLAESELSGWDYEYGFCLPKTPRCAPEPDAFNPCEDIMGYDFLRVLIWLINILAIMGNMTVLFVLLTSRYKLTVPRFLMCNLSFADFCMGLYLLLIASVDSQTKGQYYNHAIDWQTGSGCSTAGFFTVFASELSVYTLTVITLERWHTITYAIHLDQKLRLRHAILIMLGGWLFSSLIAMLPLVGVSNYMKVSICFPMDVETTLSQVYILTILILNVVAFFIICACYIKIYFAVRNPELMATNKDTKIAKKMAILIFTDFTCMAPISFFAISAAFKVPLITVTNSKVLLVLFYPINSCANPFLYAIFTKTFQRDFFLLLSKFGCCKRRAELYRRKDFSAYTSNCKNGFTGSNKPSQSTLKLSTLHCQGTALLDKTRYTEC
# This list was built around the results that the source calls inconclusive (neither active nor inactive); the mix of calls is not that of the screen. Where the call is inconclusive, the potency comes from a doubtful curve fit. Activity calls are given as the source filed them. The call rests on the fitted dose curve; in most records, active means well fitted curve in the direction sought with a large enough effect in the signal ratio; inconclusive means small, poorly fitted or top-dose-only effect, or effect the other way, or a change in a side signal; inactive means no such curve, though single readings can be large or run the other way; the % refers to the signal ratio.
# Molecular target: Lutropin-choriogonadotropic hormone receptor (Homo sapiens) (UniProt P22888)
# Experiment: Counterscreen for Agonists of Thyroid Stimulating Hormone Receptor: HTRF Activity in a Luteinizing Hormone Receptor Cell Line
# Settings: HEK293-LHR cells, cAMP HTRF ratio, 30 min; series mostly up to 91.7 µM
# Excerpt: NIH Chemical Genomics Center [NCGC] NIH Molecular Libraries Screening Centers Network [MLSCN] MLSCN Grant: 1 X01 MH080680-01 PI Name: Dr. Marvin Gershengorn, NIH NCGC Assay Overview: Confirmation of Thyroid Stimulating Hormone Receptor Agonists TSH is an alpha/beta heterodimeric glycoprotein hormone secreted from the anterior pituitary gland which belongs to the glycoprotein hormone family. The actions of TSH are mediated by a seven-transmembrane receptor, which upon TSH binding couples preferentially to the G-alpha (s) protein (Gs), resulting in activation of adenylate cyclase and increase in cyclic adenosine 3', 5' monophosphate (cAMP). The TSH receptor (THSR) is mainly expressed in thyroid follicular cells and regulates their growth and function. Recombinant TSH is used to activate TSHR in patients with thyroid cancer receiving thyroid hormone suppression therapy and to screen for residual tumor after surgery, but it is expensive and must be administered intramuscularly. An orally active small molecule TSHR agonist would serve as an invaluable research tool for studying TSHR pharmacology and physiology, and would have multiple advantages in therapeutic settings. However, no selective small molecule agonist of the TSH receptor exists, and no small molecule screen for TSHR agonists has ever been reported. In order to confirm specificity of the compounds to the TSHR, a confirmatory assay was conducted on a similar family member, the Luteinizing Hormone (LH) receptor, transfected into a HEK 293 cell line, using an orthogonal detection technology to measure cAMP stimulation: antibody-based Homogeneous Time Resolved Fluorescence (HTRF).
# NCGC Assay Protocol Summary: Homogeneous Time Resolved Fluorescence (HTRF) cAMP Assay. […] Plates were measured using the Envision plate reader (PerkinElmer, Boston, MA) with excitation at 330 nm and emissions of 615 nm and 660 nm. Keywords: Luteinizing hormone LH, Thyroid-stimulating hormone TSH, TSHR, TSHR agonist, quantitative high throughput screening, qHTS, HTS, probe identification, CNG, cAMP, cyclic nucleotide gated ion channel PubChem
row,Compound,Potency
1,COc1ccc(C(=O)N(Cc2ccco2)Cc2cccs2)c(OC)c1,"inconclusive: 0.9 nM [activator, full curve, poor fit]"
2,NC(=O)c1nsc(C(=O)N(CC(=O)NC2CCCCC2)Cc2ccc3c(c2)OCO3)c1N,"inconclusive: 0.2 nM [activator, full curve, poor fit]"
3,O=C(COC(=O)C12CC3CC(CC(O)(C3)C1)C2)NCc1ccco1,inactive
